Results on one variant are retold here after paper PMC4344513.

B1: wild type Polη stably expressed in XP30RO (XPV) cells [human] / POLD2 endogenous in XPV cells [human (endogenous in XP30RO)] (parent)
chain 1: MATGQDRVVALVDMDCFFVQVEQRQNPHLRNKPCAVVQYKSWKGGGIIAVSYEARAFGVTRSMWADDAKKLCPDLLLAQVRESRGKANLTKYREASVEVMEIMSRFAVIERASIDEAYVDLTSAVQERLQKLQGQPISADLLPSTYIEGLPQGPTTAEETVQKEGMRKQGLFQWLDSLQIDNLTSPDLQLTVGAVIVEEMRAAIERETGFQCSAGISHNKVLAKLACGLNKPNRQTLVSHGSVPQLFSQMPIRKIRSLGGKLGASVIEILGIEYMGELTQFTESQLQSHFGEKNGSWLYAMCRGIEHDPVKPRQLPKTIGCSKNFPGKTALATREQVQWWLLQLAQELEERLTKDRNDNDRVATQLVVSIRVQGDKRLSSLRRCCALTRYDAHKMSHDAFTVIKNCNTSGIQTEWSPPLTMLFLCATKFSASAPSSSTDITSFLSSDPSSLPKVPVTSSEAKTQGSGPAVTATKKATTSLESFFQKAAERQKVKEASLSSLTAPTQAPMSNSPSKPSLPFQTSQSTGTEPFFKQKSLLLKQKQLNNSSVSSPQQNPWSNCKALPNSLPTEYPGCVPVCEGVSKLEESSKATPAEMDLAHNSQSMHASSASKSVLEVTQKATPNPSLLAAEDQVPCEKCGSLVPVWDMPEHMDYHFALELQKSFLQPHSSNPQVVSAVSHQGKRNPKSPLACTNKRPRPEGMQTLESFFKPLTH
chain 2: MFSEQAAQRAHTLLSPPSANNATFARVPVATYTNSSQPFRLGERSFSRQYAHIYATRLIQMRPFLENRAQQHWGSGVGVKKLCELQPEEKCCVVGTLFKAMPLQPSILREVSEEHNLLPQPPRSKYIHPDDELVLEDELQRIKLKGTIDVSKLVTGTVLAVFGSVRDDGKFLVEDYCFADLAPQKPAPPLDTDRFVLLVSGLGLGGGGGESLLGTQLLVDVVTGQLGDEGEQCSAAHVSRVILAGNLLSHSTQSRDSINKAKYLTKKTQAASVEAVKMLDEILLQLSASVPVDVMPGEFDPTNYTLPQQPLHPCMFPLATAYSTLQLVTNPYQATIDGVRFLGTSGQNVSDIFRYSSMEDHLEILEWTLRVRHISPTAPDTLGCYPFYKTDPFIFPECPHVYFCGNTPSFGSKIIRGPEDQTVLLVTVPDFSATQTACLVNLRSLACQPISFSGFGAEDDDLGGLGLGP

The first experiment covers variants of B1. The experiment is described as follows: proximity ligation assay (PLA) in XPV cells. The conditions noted are these: with POLD2 endogenous in XPV cells [human (endogenous in XP30RO)]; UV-irradiated (20 J/m2), processed after 6 h; CSK-extracted nuclei; positive cell = at least four fluorescent spots; parent: 28.3.
For chain 1 F483A F484A, the screen value came out at 5.7%.

The experiment is the same for the next values; noted with them: with POLD2 endogenous in XPV cells [human (endogenous in XP30RO)]; non-treated (-UV); CSK-extracted nuclei; positive cell = at least four fluorescent spots; parent: 4.6.
For the variant chain 1 F483A F484A, the screen value turned out to be 4.1%.
